# Test results reported in PubChem BioAssay AID445 (National Center for Advancing Translational Sciences (NCATS), 2006).
# The other results are listed elsewhere or left out. The main result of the screen is listed elsewhere. These columns were measured beside it and carry no call. Most of these compounds were active or inconclusive in the main read-out, so they are no random draw. The note in brackets gives the kind of curve behind each potency; many fits are weak.
# Assay: IkB Signaling
# Conditions: ABC-DLBCL IkBa-CBG/CBR dual luciferase ratio (green luciferase fused to IkBa over red control in OCI-Ly3 lymphoma cells), 4 h
# Method in brief: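 Curves were fitted separately to fusion (green), unfused (red) and ratio luminescence, then classed by r2, magnitude and activity. Cells: OCI-Ly3, 4 h compound plus doxycycline at 37C; 10 uM MG-132 defined full response.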
# [1] = measured here: control luc red channel unless noted
# [2] = measured here: IkB-luc green channel
# [3] = measured here: control luc red channel
smiles,measurement,setting,value
Cc1ccccc1NC(=O)c1cccc2c(=O)c3c([nH]c12)CCCC3,AC50,[1],"0.0251 µM [rising, full curve, poor fit]"
Cc1ccccc1NC(=O)CSc1nnc(COc2ccc(Cl)cc2)o1,AC50,[1],"5.01 µM [falling, partial curve]"
CN(C)CCNC(=O)c1ccc2c(c1)N(Cc1ccccc1)C(=O)c1ccccc1S2(=O)=O,AC50,[1],"25.1 µM [falling, single point]"
CCCSc1ncc(Cl)c(C(=O)NCc2ccc(OC)cc2)n1,AC50,[1],"25.1 µM [falling, single point]"
Cc1noc(C)c1CSc1cc(C)c2ccccc2n1,AC50,[1],"2.51 µM [rising, full curve]"
COc1cccc(-c2cc(C(=O)Nc3cc(OC)c(OC)c(OC)c3)no2)c1,AC50,[1],"6.31 µM [falling, partial curve]"
O=C(Cn1cc(C(=O)c2ccncc2)c(=O)c2cc(F)ccc21)Nc1ccc(Cl)cc1,AC50,[1],"6.31 µM [falling, partial curve]"
O=C1c2[nH]nc(-c3ccccc3O)c2C(c2cccc(O)c2)N1Cc1ccncc1 (stereo not drawn),AC50,[1],"31.6 µM [falling, partial curve]"
CC1=C(C#N)c2nc(N)c(C#N)c(C)c2/C1=C\c1ccccc1,AC50,[2],"3.98 µM [rising, single point]"
same,AC50,[3],"15.8 µM [falling, partial curve]"
Cc1ccc2c(c1)N(S(=O)(=O)c1cc(-c3onc(C)c3C)ccc1C)CCO2,AC50,[1],"31.6 µM [falling, single point]"
COc1ccccc1CNC(=O)CCn1c(=O)c2ccccc2n(CC(=O)Nc2ccc(Br)cc2F)c1=O,AC50,[2],"25.1 µM [rising, single point]"
same,AC50,[3],"3.98 µM [falling, partial curve]"
Cc1ccc(O)c(NC(=O)c2noc3c2CCCC3)c1,AC50,[1],"25.1 µM [falling, single point]"
CCOC(=O)N1CCN(C(=O)CN(c2cccc(Cl)c2)S(=O)(=O)c2ccccc2)CC1,AC50,[1],"3.98 µM [falling, partial curve]"
CCCN(C(=O)c1cc2c(=O)oc3ccccc3c2s1)c1cccc(Cl)c1,AC50,[1],"5.01 µM [falling, full curve, poor fit]"
CC[C@@H](C)[C@H]1O[C@]2(CC[C@@H]1C)C[C@@H]1C[C@H](C/C=C(/C)[C@H](O[C@@H]3C[C@H](OC)[C@H](O[C@@H]4C[C@H](OC)[C@@H](O)[C@H](C)O4)[C@H](C)O3)[C@@H](C)/C=C\C=C3CO[C@@H]4[C@H](O)C(C)=C[C@@H](C(=O)O1)[C@]34O)O2 (tested in a mixture with another compound),AC50,[1],"10 µM [falling, full curve, poor fit]"
COc1cccc(CNC(=O)c2cc(S(=O)(=O)N3CCCCCC3)cn2C)c1,AC50,[1],"5.01 µM [falling, partial curve]"
CCc1cccc(NS(=O)(=O)c2ccc3c(c2)n(C)c(=O)c(=O)n3C)c1,AC50,[1],"10 µM [falling, partial curve]"
CCC1CN(C(=O)Nc2cc(C)ccc2OC)c2cc(Cl)ccc2O1 (stereo not drawn),AC50,[1],"31.6 µM [falling, single point]"
COC(=O)c1ccc(NC(=O)CC2Nc3cc(C)c(C)cc3NC2=O)cc1 (stereo not drawn),AC50,[1],"25.1 µM [falling, single point]"
COc1ccccc1NCc1cccn1-c1nnc(N2CCCCCC2)s1,AC50,[1],"25.1 µM [falling, partial curve]"
Cc1cc(C)n(-c2nc3ccccc3nc2Nc2ccc(Cl)c(Cl)c2)n1,AC50,[1],"25.1 µM [falling, single point]"
CCOc1ccc(S(=O)(=O)Nc2ccc3oc(C)c(C(=O)OC(C)C)c3c2)cc1,AC50,[1],"39.8 µM [falling, partial curve, poor fit]"
COc1cccc(-c2nnc(SCC(=O)N3CCCc4ccccc43)o2)c1,AC50,[1],"15.8 µM [falling, partial curve]"
Cc1cccc(OCC(=O)Nc2c(C(=O)N3CCN(c4ccccc4F)CC3)oc3ccccc23)c1,AC50,[1],"12.6 µM [falling, partial curve]"
Cc1ccc2c(c1)-c1onc(C(=O)N3CCN(c4ccc(Cl)cc4)CC3)c1CO2,AC50,[1],"1.26 µM [falling, partial curve]"
CCOc1ccc(Cl)cc1/C=N/O,AC50,[1],"3.16 µM [rising, full curve]"
CNC(=O)c1c(NC(=O)c2nc3ccccc3s2)sc2c1CCC2,AC50,[2],"12.6 µM [rising, partial curve]"
same,AC50,[3],"0.00631 µM [falling, full curve]"
Cn1c(=O)n(C)c2cc(C(=O)Nc3ccc4c(c3)OCO4)ccc21,AC50,[1],"10 µM [rising, partial curve] [measured here: IkB-luc green channel]"
Brc1ccc(-c2nc3ccccn3c2Nc2ccc3c(c2)OCCO3)o1,AC50,[1],"12.6 µM [falling, partial curve]"
CSC1=NC2(CCN(C(=O)NC3CCCCC3)CC2)N=C1c1ccc(C)cc1,AC50,[1],"15.8 µM [falling, partial curve]"
O=C(C1COc2ccccc2O1)N1CCN(c2nc3ccc(F)cc3s2)CC1 (stereo not drawn),AC50,[1],"25.1 µM [falling, partial curve]"
O=C(c1cccs1)N(C(=O)c1cccs1)c1ccccn1,AC50,[1],"31.6 µM [falling, single point]"
Cn1c(=O)c2c(nc(SCC(=O)Nc3ccccc3)n2Cc2ccccc2F)n(C)c1=O,AC50,[1],"3.98 µM [falling, full curve]"
CCN(CC)S(=O)(=O)c1nnc(NC(=O)COc2ccccc2F)s1,AC50,[1],"39.8 µM [falling, single point]"
Fc1ccc(CNc2ncnc3onc(-c4ccc(F)cc4)c23)cc1,AC50,[1],"1 µM [falling, single point]"
CCc1cccc(C)c1Nc1c(-c2ccccc2)nc2sccn12,AC50,[1],"25.1 µM [falling, single point]"
O=C(C1COc2ccccc2O1)N(Cc1cccnc1)c1nc2ccc(Cl)cc2s1 (stereo not drawn),AC50,[1],"39.8 µM [falling, single point]"
N#Cc1nc(Cc2cccc3ccccc23)oc1NCCN1CCCCC1,AC50,[1],"0.398 µM [falling, full curve]"
COc1ccc(OC)c(CNC(=O)c2c3c(nc4ccccc24)C(=O)N(C2CCCCC2)C3)c1,AC50,[1],"10 µM [falling, single point]"
O=C(Nc1ccc(O)cc1C(=O)O)c1cccc(Br)c1,AC50,[1],"0.0316 µM [falling, full curve]"
CCOC(=O)c1c(C)[nH]c(C)c1S(=O)(=O)N1CCC(C(=O)N2CCN(c3cccc(Cl)c3)CC2)CC1,AC50,[1],"31.6 µM [falling, single point]"
CCOC(=O)c1c(S(=O)(=O)N2CCC(C(=O)NCc3ccc(F)cc3)CC2)c(C)n(C)c1C,AC50,[1],"3.16 µM [rising, partial curve, poor fit]"
Cc1cccc(N(C)C(=O)CCS(=O)(=O)c2ccc3c(c2)oc(=O)n3C)c1,AC50,[1],"31.6 µM [falling, partial curve]"
COc1ccc(OCC(=O)NC2CC(=O)N(c3cccc(OC)c3)C2)cc1 (stereo not drawn),AC50,[2],"3.98 µM [rising, single point]"
same,AC50,[3],"6.31 µM [rising, partial curve]"
CCCN(CCC)CC(O)Cn1cc(/C=C/C(=O)c2ccc(C)cc2)c2ccccc21 (stereo not drawn),AC50,[1],"25.1 µM [falling, single point]"
COc1ccc(NC(=O)CN2CCN(Cc3ccc(F)cc3)S2(=O)=O)cc1Cl,AC50,[1],"39.8 µM [falling, single point]"
COc1ccc(NC(=O)c2cc(S(=O)(=O)N3CCCCCC3)cn2C)c(OC)c1,AC50,[1],"1.58 µM [falling, full curve, poor fit]"
Cc1ccccc1C(=O)NC1(C(F)(F)F)N=C(c2ccccc2)N(C2CCCCC2)C1=O (stereo not drawn),AC50,[1],"39.8 µM [falling, single point]"
CCC(Oc1ccccc1F)C(=O)N1CCC(c2nc3ccccc3s2)CC1 (stereo not drawn),AC50,[1],"25.1 µM [falling, partial curve]"
O=C(NC(=O)c1ccccc1)Nc1ccc(-c2cc(C(F)(F)F)nn2-c2ccccc2)cc1,AC50,[1],"0.126 µM [rising, full curve]"
Cc1ccc(C(CC(=O)c2ccco2)SCCO)cc1 (stereo not drawn),AC50,[1],"39.8 µM [falling, single point]"
COc1ccc(Cl)cc1NC(=O)C1CCCN(c2ncnc3onc(C)c23)C1 (stereo not drawn),AC50,[1],"31.6 µM [falling, partial curve]"
COc1ccccc1CCNC(=O)C1CCN(c2nnc(-n3cccc3CNc3ccc(C)cc3)s2)CC1,AC50,[1],"12.6 µM [falling, partial curve]"
COc1ccc(N2CCN(c3csc4ccc(Cl)cc4c3=O)CC2)cc1,AC50,[1],"31.6 µM [falling, partial curve, poor fit]"
COc1ccc(S(=O)(=O)Nc2ccccc2C(=O)NCc2ccco2)cc1Br,AC50,[1],"12.6 µM [falling, partial curve]"
O=C(O)c1ccc2nc(-c3cc4cccc(O)c4oc3=O)[nH]c2c1,AC50,[1],"0.126 µM [falling, full curve]"
CCc1ccccc1Nc1nn2c(=O)c3ccc(C(=O)NCc4ccccc4OC)cc3nc2s1,AC50,[1],"10 µM [falling, partial curve]"
CCOC(=O)c1c(C)[nH]c(C)c1S(=O)(=O)N1CCCC(C(=O)Nc2ccc(C)cn2)C1 (stereo not drawn),AC50,[1],"20 µM [falling, partial curve, poor fit]"
COc1ccccc1Cn1cc(C(=O)c2ccc(C)cc2)c(=O)c2cc(C)ccc21,AC50,[1],"31.6 µM [falling, partial curve]"

# Another view of some results above:
smiles | measurement | setting | value
COc1ccc(OCC(=O)NC2CC(=O)N(c3cccc(OC)c3)C2)cc1 (stereo not drawn) | AC50 | [2] | 3.98 µM [rising, single point]
same | AC50 | [3] | 6.31 µM [rising, partial curve]
CCCN(CCC)CC(O)Cn1cc(/C=C/C(=O)c2ccc(C)cc2)c2ccccc21 (stereo not drawn) | AC50 | [1] | 25.1 µM [falling, single point]
COc1ccc(NC(=O)CN2CCN(Cc3ccc(F)cc3)S2(=O)=O)cc1Cl | AC50 | [1] | 39.8 µM [falling, single point]

# Part of the list above in a different format.
smiles | measurement | setting | value
CC[C@@H](C)[C@H]1O[C@]2(CC[C@@H]1C)C[C@@H]1C[C@H](C/C=C(/C)[C@H](O[C@@H]3C[C@H](OC)[C@H](O[C@@H]4C[C@H](OC)[C@@H](O)[C@H](C)O4)[C@H](C)O3)[C@@H](C)/C=C\C=C3CO[C@@H]4[C@H](O)C(C)=C[C@@H](C(=O)O1)[C@]34O)O2 (tested in a mixture with another compound) | AC50 | [1] | 10 µM [falling, full curve, poor fit]
O=C(O)c1ccc2nc(-c3cc4cccc(O)c4oc3=O)[nH]c2c1 | AC50 | [1] | 0.126 µM [falling, full curve]
